Measurements published in the supplement of paper PMC12823440, “Inhibitors supercharge kinase turnover through native proteolytic circuits” (Nature, 2025).
Where a name gives a salt, the structure may show the parent alone. Some of the results follow. The calls rarely recur for the same compound in another form.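 Kinases were expressed as nanoluciferase fusions in K562 cells and luminescence was read every 4 h between 2 and 18 h as percent of control, DMSO set to 100% and a positive control to 0%. A time point counts as decreased when the signal drops significantly (2 sigma). The hit call is the authors' own, does not follow from the count of time points alone, and its rule is not shown.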

Amino acid sequences for entries named in this document (tags omitted). A change or cut given only in a name is not applied to a line headed by its entry.
UniProt Q9UQB9: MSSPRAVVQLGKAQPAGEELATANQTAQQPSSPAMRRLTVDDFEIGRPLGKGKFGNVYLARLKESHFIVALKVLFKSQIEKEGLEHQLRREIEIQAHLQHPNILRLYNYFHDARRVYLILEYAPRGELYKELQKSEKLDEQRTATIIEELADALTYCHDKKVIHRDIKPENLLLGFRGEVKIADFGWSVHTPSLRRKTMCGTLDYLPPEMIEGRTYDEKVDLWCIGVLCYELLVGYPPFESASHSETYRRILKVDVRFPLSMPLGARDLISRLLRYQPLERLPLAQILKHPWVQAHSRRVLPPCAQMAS

These compounds were tested against AURKC (UniProt Q9UQB9) (assay: kinase-Nluc reporter destabilization hit call (1 = scored as downregulated) (binary); higher = compound decreases kinase abundance). Conditions: K562; 2-18 h.

kinase-Nluc reporter destabilization hit call, inactive:
O=S(=O)(c1cccc2cnccc12)N1CCNCC1 (10 µM) 0
COc1cc(C(C)=O)cc(OC)c1O [Acetosyringone] (10 µM) 0
CCOc1c([C@H](C)n2nc(C)c3c(N)ncnc32)cc(Cl)c(F)c1[C@@H]1CNC(=O)C1 [Parsaclisib (hydrochloride)] (10 µM) 0
CC[C@H](C)[C@H](NC(=O)[C@H](CCC(=O)O)NC(=O)[C@H](CCCN=C(N)N)NC(=O)[C@H](CCCN=C(N)N)NC(=O)[C@@H](N)CCCCN)C(=O)N[C@@H](CC(C)C)C(=O)N[C@@H](CO)C(=O)N[C@@H](CCCN=C(N)N)C(=O)N[C@@H](CCCN=C(N)N)C(=O)N1CCC[C@H]1C(=O)N[C@@H](CO)C(=O)N[C@@H](Cc1ccc(O)cc1)C(=O)N[C@@H](CCCN=C(N)N)C(=O)O [CREBtide] (10 µM) 0
O=C(O)CCc1ccc(NCc2cccc(Oc3ccccc3)c2)cc1 (10 µM) 0
O[C@H]1CC[C@H](Nc2ncc3nc(Nc4c(F)cc(F)cc4F)n([C@H]4CCOC4)c3n2)CC1 [Tanzisertib] (10 µM) 0
Oc1ccccc1C(=S)N1CCCC1 (10 µM) 0
CC[C@@H]1C(=O)N(C)c2cnc(Nc3ccc(C(=O)N[C@H]4CC[C@H](N5CCN(CC6CC6)CC5)CC4)cc3OC)nc2N1C(C)C [Volasertib] (2.5 µM) 0
C[C@@H]1O[C@@H](OC[C@H]2O[C@@H](Oc3cc(O)c4c(c3)O[C@H](c3ccc(O)cc3)CC4=O)[C@H](O)[C@@H](O)[C@@H]2O)[C@H](O)[C@H](O)[C@H]1O [Narirutin] (10 µM) 0
CCc1ccc(C(=O)COc2ccc(CC3SC(=O)NC3=O)cc2)nc1 (stereo not drawn) (10 µM) 0
Cc1ccc(-c2ccc3c(ccc4sc5c(c43)NC[C@@H](C)NC5=O)n2)cn1 (10 µM) 0
CC[C@H](Nc1ncnc2[nH]cnc12)c1oc2ccccc2c(=O)c1-c1cccc(F)c1 [Tenalisib] (10 µM) 0
CCCC(=O)Nc1nc2c(ncn2[C@@H]2O[C@@H]3COP(=O)(O)O[C@H]3[C@H]2OC(=O)CCC)c(=O)[nH]1 [Dibutyryl-cGMP (sodium)] (10 µM) 0
CC(C)c1cnn2c(NCc3ccccc3-n3cccn3)nc(OC3CCCNC3)nc12 (stereo not drawn) (2.5 µM) 0
OCCN(CCO)c1ccc(C(c2ccc(Cl)cc2)c2ccc(N(CCO)CCO)cc2)cc1 (10 µM) 0
CCCCNC(=N)NC(=N)N [Buformin (hydrochloride)] (2.5 µM) 0
Fc1c(Br)cccc1Nc1ncnc2cc3c(cc12)OCCO3 (2.5 µM) 0
Cc1cc(Nc2nc(N[C@@H](C)c3ncc(F)cn3)ncc2Cl)[nH]n1 (10 µM) 0
Cc1cc(Nc2cc(CN3CCOCC3)c3nc(C)c(Cc4ccc(Cl)cc4F)n3n2)n[nH]1 [Gandotinib] (2.5 µM) 0
COc1cc(N2CCC(N(C)C)CC2)ccc1Nc1ncc(Cl)c(Nc2ccccc2P(C)(C)=O)n1 (2.5 µM) 0
Nc1[nH]c(=O)nc2c1ncn2[C@@H]1O[C@H](CO)[C@@H](O)[C@H]1O [Crotonoside] (10 µM) 0
Cn1cc(-c2ccc(F)c(C(F)(F)F)c2)nc1C1CCN(c2ncnc3[nH]ncc23)CC1 (10 µM) 0
CCOc1ccccc1C=C1C(=O)Nc2ccccc21 (10 µM) 0
CC(C)(C)C(=O)N1N=CC[C@H]1c1ccccc1 (10 µM) 0
COc1ccc(CCNc2ncc3c(=O)n(-c4cccc(F)c4)c(=O)[nH]c3n2)cc1OC (2 µM) 0
Cc1ccc(-c2nn(C(C)(C)CNC(=O)c3ccncc3)c3ncnc(N)c23)cc1 (2.5 µM) 0
CNC(=O)c1ccc(-c2cnc3cnc(-c4ccccc4)cn23)cc1 (10 µM) 0
CCn1nc(C2CCN(C(=O)CCO)CC2)nc1-c1cnc(N)c(-c2nnc(C(C)(C)C)o2)n1 (10 µM) 0
CCCCCCCC/C=C\CCCCCCCC(=O)NCC(=O)O [N-Oleoyl glycine] (10 µM) 0
CC1(COc2ccc3c(c2)ncn3-c2ccc3cccc(N4CCC(N)CC4)c3n2)COC1 [Crenolanib] (2.5 µM) 0
CC(CCc1ccccn1)(CCc1ccccn1)C(=O)c1ccccc1 (10 µM) 0
COc1cc(-c2cc(-c3cc(OC)c(OC)c(OC)c3)cc(C(F)P(=O)(OCOC(=O)C(C)(C)C)OCOC(=O)C(C)(C)C)c2)cc(OC)c1OC (stereo not drawn) [Stafia-1-dipivaloyloxymethyl ester] (2.5 µM) 0
CC1(N)CCN(c2cnc3c(-c4cccc(Cl)c4Cl)[nH]nc3n2)CC1 (2.5 µM) 0
CC(C)(O)[C@@H]1CC[C@](C)([C@H]2[C@@H](O)C[C@@]3(C)[C@@H]4C[C@H](O[C@@H]5O[C@H](CO)[C@@H](O)[C@H](O)[C@H]5O)[C@H]5C(C)(C)[C@@H](O[C@@H]6OC[C@@H](O)[C@H](O)[C@H]6O[C@@H]6O[C@H](CO)[C@@H](O)[C@H](O)[C@H]6O)CC[C@@]56C[C@@]46CC[C@]23C)O1 [Astragaloside VI] (10 µM) 0
Cc1nc(NC(=O)NCCc2nnn(CCF)n2)sc1-c1ccc(S(C)(=O)=O)c(F)c1 (10 µM) 0
CCN(C)C(=O)c1ccc2c(C(=Nc3ccc(CN4CCCCC4)cc3)c3ccccc3)c(O)[nH]c2c1 (2.5 µM) 0
CC(=O)Nc1nc(C)c(-c2nc(N3CCCC(O)C3)no2)s1 (stereo not drawn) (10 µM) 0
COc1c(O)cc2oc3cc(O)c(CC=C(C)C)c(O)c3c(=O)c2c1CCC(C)(C)O [Garcinone D] (2.5 µM) 0

Molecules listed so far with a tert-butyl group (three):
kinase-Nluc reporter destabilization hit call, inactive:
CC(C)(C)C(=O)N1N=CC[C@H]1c1ccccc1 (10 µM) 0
CCn1nc(C2CCN(C(=O)CCO)CC2)nc1-c1cnc(N)c(-c2nnc(C(C)(C)C)o2)n1 (10 µM) 0
COc1cc(-c2cc(-c3cc(OC)c(OC)c(OC)c3)cc(C(F)P(=O)(OCOC(=O)C(C)(C)C)OCOC(=O)C(C)(C)C)c2)cc(OC)c1OC (stereo not drawn) [Stafia-1-dipivaloyloxymethyl ester] (2.5 µM) 0
